These are yes or no findings as the source states them, for the method shown. Binding seen in cells or lysates may run through a third protein. Some entries that bind do so weakly or less than the wild type. Values belong to the molecule of their own block, whether it stands above or below them.
Biological target: homeobox C6 (HOXC6), Flag-tagged, stably overexpressed in HCT116 cells (HOXC6-OE) (human) (UniProt P09630)
Assay: co-IP; FLAG Immunoprecipitation Kit (Flag-gel) on lysates of HOXC6-OE and NC HCT116 cells; eluates western blotted for β-catenin, DKK1 and HOXC6; whole-cell lysate as positive control

Protein sequences, listed by entry. Tags and fused reporters are not part of them.
UniProt P09630: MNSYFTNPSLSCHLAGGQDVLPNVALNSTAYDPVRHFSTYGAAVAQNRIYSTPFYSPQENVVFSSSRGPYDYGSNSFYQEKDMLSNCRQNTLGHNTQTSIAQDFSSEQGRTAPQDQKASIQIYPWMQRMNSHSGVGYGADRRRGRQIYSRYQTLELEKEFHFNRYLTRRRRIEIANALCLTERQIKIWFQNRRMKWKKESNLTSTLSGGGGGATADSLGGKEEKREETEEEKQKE
UniProt P35222: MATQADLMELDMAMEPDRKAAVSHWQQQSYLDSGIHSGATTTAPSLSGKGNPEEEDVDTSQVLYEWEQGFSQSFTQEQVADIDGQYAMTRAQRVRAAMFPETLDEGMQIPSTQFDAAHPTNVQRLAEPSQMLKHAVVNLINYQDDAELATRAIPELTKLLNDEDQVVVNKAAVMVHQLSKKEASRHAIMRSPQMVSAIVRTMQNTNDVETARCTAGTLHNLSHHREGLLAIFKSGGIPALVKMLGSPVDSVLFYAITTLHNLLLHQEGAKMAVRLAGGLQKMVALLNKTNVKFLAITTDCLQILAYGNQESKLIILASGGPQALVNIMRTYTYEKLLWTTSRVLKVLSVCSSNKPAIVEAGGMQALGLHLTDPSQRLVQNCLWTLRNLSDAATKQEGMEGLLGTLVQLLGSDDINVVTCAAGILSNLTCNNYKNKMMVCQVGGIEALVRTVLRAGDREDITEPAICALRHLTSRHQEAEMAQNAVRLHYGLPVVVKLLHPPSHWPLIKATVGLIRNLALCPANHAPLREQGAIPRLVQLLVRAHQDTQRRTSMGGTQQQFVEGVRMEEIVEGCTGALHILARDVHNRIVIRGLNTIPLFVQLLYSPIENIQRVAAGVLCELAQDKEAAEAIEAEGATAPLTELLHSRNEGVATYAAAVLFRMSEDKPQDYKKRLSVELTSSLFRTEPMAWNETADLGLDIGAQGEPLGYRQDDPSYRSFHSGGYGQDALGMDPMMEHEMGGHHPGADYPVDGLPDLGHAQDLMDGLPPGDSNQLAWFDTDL

- binding: no binding
Molecule: β-catenin (from UniProt P35222 1-781)

- binding: binds
B1: DKK1 (protein, UniProt O94907 32-266)
chain: TLNSVLNSNAIKNLPPPLGGAAGHPGSAVSAAPGILYPGGNKYQTIDNYQPYPCAEDEECGTDEYCASPTRGGDAGVQICLACRKRRKRCMRHAMCCPGNYCKNGICVSSDQNHFRGEIEETITESFGNDHSTLDGYSRRTTLSSKMYHTKGQEGSVCLRSSDCASGLCCARHFWSKICKPVLKEGQVCTKHRRKGSHGLEIFQRCYCGEGLSCRIQKDHHQASNSSRLHTCQRH

Source: paper PMC8016886
